Test results published in paper PMC2821923, “Visualizing Interactions along the Escherichia coli Twin-Arginine Translocation Pathway Using Protein Fragment Complementation” (PLoS ONE, 2010).
Results are given in words; binding and its absence hold for the method and conditions named. Binding seen in cells or lysates may run through a third protein. Binding can be weak; no strength is given. Sequences can lack the tags named with a protein.

Target: T1, TatC fused to a YFP fragment (TatC-Y1; TatC-Y2) (E. coli) (UniProt P69423)
T1 sequence: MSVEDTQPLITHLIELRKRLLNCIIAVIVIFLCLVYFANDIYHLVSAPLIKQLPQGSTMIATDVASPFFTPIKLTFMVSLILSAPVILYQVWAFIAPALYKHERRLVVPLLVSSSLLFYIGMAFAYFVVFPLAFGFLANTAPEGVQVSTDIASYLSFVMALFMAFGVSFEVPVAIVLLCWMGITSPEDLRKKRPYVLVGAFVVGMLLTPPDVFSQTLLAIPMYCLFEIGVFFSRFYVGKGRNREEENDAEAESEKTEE
Assay: co-sedimentation; soluble and membrane fractions (top of the 70% sucrose layer) of TG1 ΔtatABCE cells expressing ssDmsA-Y1 alone or with TatC-Y2; anti-FLAG Western blot

binding: binds
Substance: ssDmsA-Y1 (DmsA signal peptide fused to the N-terminal YFP fragment) (E. coli) (domain or fragment)
